Binding data for 7 molecules are collected here from paper PMC7977470.

The chains behind the UniProt entries cited, without tags or fusion partners.
UniProt P02340: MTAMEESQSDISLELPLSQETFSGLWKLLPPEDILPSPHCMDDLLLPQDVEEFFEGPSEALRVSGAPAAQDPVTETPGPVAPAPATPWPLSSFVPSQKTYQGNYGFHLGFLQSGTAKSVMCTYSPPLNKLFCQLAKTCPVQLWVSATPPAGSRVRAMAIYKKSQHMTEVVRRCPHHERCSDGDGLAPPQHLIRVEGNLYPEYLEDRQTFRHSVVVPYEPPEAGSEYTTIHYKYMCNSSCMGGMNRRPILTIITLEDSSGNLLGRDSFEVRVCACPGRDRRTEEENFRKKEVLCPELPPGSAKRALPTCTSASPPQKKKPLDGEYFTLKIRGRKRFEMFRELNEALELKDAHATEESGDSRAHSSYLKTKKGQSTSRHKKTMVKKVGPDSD
UniProt Q9NQB0: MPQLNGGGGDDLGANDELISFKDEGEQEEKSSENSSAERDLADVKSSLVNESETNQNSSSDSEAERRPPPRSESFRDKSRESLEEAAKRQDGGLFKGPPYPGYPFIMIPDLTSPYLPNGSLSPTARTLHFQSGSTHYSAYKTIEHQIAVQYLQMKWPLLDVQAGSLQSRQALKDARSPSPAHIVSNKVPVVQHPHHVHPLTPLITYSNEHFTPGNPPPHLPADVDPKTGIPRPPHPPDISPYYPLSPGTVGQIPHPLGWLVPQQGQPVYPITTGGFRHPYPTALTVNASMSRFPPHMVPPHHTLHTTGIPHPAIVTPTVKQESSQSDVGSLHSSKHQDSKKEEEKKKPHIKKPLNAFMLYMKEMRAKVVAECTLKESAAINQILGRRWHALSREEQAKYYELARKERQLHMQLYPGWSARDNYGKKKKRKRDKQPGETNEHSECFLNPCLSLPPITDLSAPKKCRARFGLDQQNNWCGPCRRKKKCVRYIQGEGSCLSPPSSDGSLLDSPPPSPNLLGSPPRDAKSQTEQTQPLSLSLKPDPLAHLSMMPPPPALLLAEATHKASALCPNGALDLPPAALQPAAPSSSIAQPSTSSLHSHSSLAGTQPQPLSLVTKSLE
UniProt Q8BUN5: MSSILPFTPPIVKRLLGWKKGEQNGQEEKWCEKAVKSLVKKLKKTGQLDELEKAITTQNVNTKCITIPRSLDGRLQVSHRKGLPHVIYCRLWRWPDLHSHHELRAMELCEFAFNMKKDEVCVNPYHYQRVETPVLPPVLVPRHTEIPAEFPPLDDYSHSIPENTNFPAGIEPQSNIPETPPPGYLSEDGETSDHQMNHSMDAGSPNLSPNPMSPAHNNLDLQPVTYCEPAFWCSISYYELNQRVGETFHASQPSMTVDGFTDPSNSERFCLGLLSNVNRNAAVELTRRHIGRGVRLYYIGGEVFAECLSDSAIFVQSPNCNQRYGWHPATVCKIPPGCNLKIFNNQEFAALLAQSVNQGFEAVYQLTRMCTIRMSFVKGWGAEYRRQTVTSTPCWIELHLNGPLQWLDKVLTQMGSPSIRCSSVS

The target in assay [1] is T1, plakoglobin (human) (human (endogenous in HCAECs)) (UniProt P14923).
T1 sequence: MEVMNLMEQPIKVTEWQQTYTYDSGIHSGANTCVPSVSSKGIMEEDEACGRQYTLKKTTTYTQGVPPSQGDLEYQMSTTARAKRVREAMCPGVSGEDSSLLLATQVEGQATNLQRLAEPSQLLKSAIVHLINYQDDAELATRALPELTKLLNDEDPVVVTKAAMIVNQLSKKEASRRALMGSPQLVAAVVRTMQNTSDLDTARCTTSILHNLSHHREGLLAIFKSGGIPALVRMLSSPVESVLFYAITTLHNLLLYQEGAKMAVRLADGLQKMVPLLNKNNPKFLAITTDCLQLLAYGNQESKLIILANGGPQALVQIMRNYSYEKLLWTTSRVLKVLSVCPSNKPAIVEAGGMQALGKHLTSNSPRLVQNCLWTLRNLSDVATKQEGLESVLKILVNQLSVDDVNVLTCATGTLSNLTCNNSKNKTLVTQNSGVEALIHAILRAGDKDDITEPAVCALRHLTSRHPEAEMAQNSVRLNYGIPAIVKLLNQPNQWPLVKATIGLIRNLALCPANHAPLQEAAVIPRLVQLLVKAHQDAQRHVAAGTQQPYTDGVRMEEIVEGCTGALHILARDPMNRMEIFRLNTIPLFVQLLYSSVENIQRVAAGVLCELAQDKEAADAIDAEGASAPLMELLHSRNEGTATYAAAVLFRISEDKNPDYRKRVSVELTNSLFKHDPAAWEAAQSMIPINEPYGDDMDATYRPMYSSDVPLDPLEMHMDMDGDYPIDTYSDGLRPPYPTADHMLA
In words: co-IP; HCAEC lysates in RIPA buffer with protease inhibitors and 20 mM N-ethylmaleimide; antibody (anti-KLK8, anti-p53 or anti-plakoglobin) 16 h at 4 °C, protein A and G sepharose beads 3 h, four washes; Western blot; IgG as control; cells untreated or treated with Ad-KLK8 (72 h), high glucose (25 mM), KLK8 siRNA or plakoglobin siRNA. For orientation: A western blot detects proteins with antibodies after separation by electrophoresis.

Assay [2] addresses p53 (mouse) (mouse (endogenous in mouse heart)) (UniProt P02340). In words: co-IP; heart tissue of KLK8+/+ and KLK8-/- mice, control or after 24 weeks of streptozotocin-induced diabetes, lysed in RIPA buffer with protease inhibitors and 20 mM N-ethylmaleimide; antibody 16 h at 4 °C, protein A and G sepharose beads; Western blot.
Assay [3] concerns the target T1, plakoglobin (human) (human (endogenous in HCAECs)). In words: co-IP; HCAEC lysates in RIPA buffer with protease inhibitors and 20 mM N-ethylmaleimide; antibody (anti-KLK8, anti-p53 or anti-plakoglobin) 16 h at 4 °C, protein A and G sepharose beads 3 h, four washes; Western blot; IgG as control; cells untreated or treated with Ad-KLK8 (72 h), high glucose (25 mM), KLK8 siRNA or plakoglobin siRNA. This is another data set of the same source.

The target of assay [4] is T2, kallikrein-related peptidase 8 (KLK8) in rat myocardium (not stated (in rat myocardium; species of the KLK8 transgene not told)) (UniProt O88780).
T2 sequence: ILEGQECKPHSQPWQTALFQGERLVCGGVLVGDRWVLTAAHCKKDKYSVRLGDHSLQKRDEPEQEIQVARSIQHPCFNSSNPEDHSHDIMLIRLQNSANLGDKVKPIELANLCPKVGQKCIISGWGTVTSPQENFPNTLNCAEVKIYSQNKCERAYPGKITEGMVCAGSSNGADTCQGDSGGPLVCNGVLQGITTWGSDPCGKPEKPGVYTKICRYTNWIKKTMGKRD
In words: co-IP; rat myocardium lysed in RIPA buffer with protease inhibitors and 20 mM N-ethylmaleimide; antibody (anti-KLK8 or anti-plakoglobin) 16 h at 4 °C, protein A and G sepharose beads 3 h, four washes; Western blot; IgG as control.

The target of assay [5] is T3, kallikrein-related peptidase 8 (KLK8) in human coronary artery endothelial cells (human (endogenous in HCAECs)) (UniProt O60259).
T3 sequence: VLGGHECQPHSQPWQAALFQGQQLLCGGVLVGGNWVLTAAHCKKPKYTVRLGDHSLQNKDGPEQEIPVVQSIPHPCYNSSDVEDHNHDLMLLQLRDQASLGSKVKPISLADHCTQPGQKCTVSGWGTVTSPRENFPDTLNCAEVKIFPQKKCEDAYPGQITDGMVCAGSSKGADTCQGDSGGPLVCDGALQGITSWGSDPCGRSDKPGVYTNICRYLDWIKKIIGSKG
In words: co-IP; HCAEC lysates in RIPA buffer with protease inhibitors and 20 mM N-ethylmaleimide; antibody (anti-KLK8, anti-p53 or anti-plakoglobin) 16 h at 4 °C, protein A and G sepharose beads 3 h, four washes; Western blot; IgG as control; cells untreated or treated with Ad-KLK8 (72 h), high glucose (25 mM), KLK8 siRNA or plakoglobin siRNA.

For assay [6], the target named is T4, plakoglobin (rat) (rat (endogenous in rat myocardium)) (UniProt Q6P0K8).
T4 sequence: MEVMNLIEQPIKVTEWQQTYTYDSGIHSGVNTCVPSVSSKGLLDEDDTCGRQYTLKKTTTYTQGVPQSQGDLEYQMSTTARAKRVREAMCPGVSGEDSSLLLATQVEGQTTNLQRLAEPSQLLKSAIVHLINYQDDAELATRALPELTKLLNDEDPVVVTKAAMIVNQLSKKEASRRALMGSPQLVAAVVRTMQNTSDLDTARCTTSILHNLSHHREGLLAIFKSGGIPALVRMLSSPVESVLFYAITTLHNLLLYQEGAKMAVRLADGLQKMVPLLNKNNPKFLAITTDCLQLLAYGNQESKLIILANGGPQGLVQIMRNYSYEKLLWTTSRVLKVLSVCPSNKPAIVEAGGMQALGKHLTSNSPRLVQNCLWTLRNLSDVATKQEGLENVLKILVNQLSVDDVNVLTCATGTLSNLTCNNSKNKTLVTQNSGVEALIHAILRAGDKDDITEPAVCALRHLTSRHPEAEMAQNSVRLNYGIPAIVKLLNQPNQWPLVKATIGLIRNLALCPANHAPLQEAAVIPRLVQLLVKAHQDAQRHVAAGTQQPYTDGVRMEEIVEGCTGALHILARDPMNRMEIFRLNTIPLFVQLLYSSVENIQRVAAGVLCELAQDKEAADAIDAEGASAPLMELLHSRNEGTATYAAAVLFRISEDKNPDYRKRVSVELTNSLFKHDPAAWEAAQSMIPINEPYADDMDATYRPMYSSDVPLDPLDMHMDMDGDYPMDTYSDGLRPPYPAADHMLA
In words: co-IP; rat myocardium lysed in RIPA buffer with protease inhibitors and 20 mM N-ethylmaleimide; antibody (anti-KLK8 or anti-plakoglobin) 16 h at 4 °C, protein A and G sepharose beads 3 h, four washes; Western blot; IgG as control.

Where two headings read alike, the source gives them in different places. These are yes or no findings as the source states them, for the method shown. Binding seen in cells or lysates may run through a third protein. Some binding calls cover weakened binding; strength is not graded here.

Regarding “TCF-4 (human) (from UniProt Q9NQB0 1-619)”, the binding entry in assay [1] was “binds”.

Regarding “Smad3 (mouse) (from UniProt Q8BUN5 1-425)”, the binding entry in assay [2] is “binds”.

B1: kallikrein-related peptidase 8 (KLK8) in human coronary artery endothelial cells (enzyme, UniProt O60259 33-260)
chain: VLGGHECQPHSQPWQAALFQGQQLLCGGVLVGGNWVLTAAHCKKPKYTVRLGDHSLQNKDGPEQEIPVVQSIPHPCYNSSDVEDHNHDLMLLQLRDQASLGSKVKPISLADHCTQPGQKCTVSGWGTVTSPRENFPDTLNCAEVKIFPQKKCEDAYPGQITDGMVCAGSSKGADTCQGDSGGPLVCDGALQGITSWGSDPCGRSDKPGVYTNICRYLDWIKKIIGSKG
Turning to B1, in assay [3], the binding entry is on record as “binds”.

B2: plakoglobin (rat) (protein, UniProt Q6P0K8 1-745)
chain: MEVMNLIEQPIKVTEWQQTYTYDSGIHSGVNTCVPSVSSKGLLDEDDTCGRQYTLKKTTTYTQGVPQSQGDLEYQMSTTARAKRVREAMCPGVSGEDSSLLLATQVEGQTTNLQRLAEPSQLLKSAIVHLINYQDDAELATRALPELTKLLNDEDPVVVTKAAMIVNQLSKKEASRRALMGSPQLVAAVVRTMQNTSDLDTARCTTSILHNLSHHREGLLAIFKSGGIPALVRMLSSPVESVLFYAITTLHNLLLYQEGAKMAVRLADGLQKMVPLLNKNNPKFLAITTDCLQLLAYGNQESKLIILANGGPQGLVQIMRNYSYEKLLWTTSRVLKVLSVCPSNKPAIVEAGGMQALGKHLTSNSPRLVQNCLWTLRNLSDVATKQEGLENVLKILVNQLSVDDVNVLTCATGTLSNLTCNNSKNKTLVTQNSGVEALIHAILRAGDKDDITEPAVCALRHLTSRHPEAEMAQNSVRLNYGIPAIVKLLNQPNQWPLVKATIGLIRNLALCPANHAPLQEAAVIPRLVQLLVKAHQDAQRHVAAGTQQPYTDGVRMEEIVEGCTGALHILARDPMNRMEIFRLNTIPLFVQLLYSSVENIQRVAAGVLCELAQDKEAADAIDAEGASAPLMELLHSRNEGTATYAAAVLFRISEDKNPDYRKRVSVELTNSLFKHDPAAWEAAQSMIPINEPYADDMDATYRPMYSSDVPLDPLDMHMDMDGDYPMDTYSDGLRPPYPAADHMLA
For the molecule B2, in assay [4], the binding entry is “binds”.

B3: vascular endothelial (VE)-cadherin (human) (protein, UniProt P33151 48-784)
chain: DWIWNQMHIDEEKNTSLPHHVGKIKSSVSRKNAKYLLKGEYVGKVFRVDAETGDVFAIERLDRENISEYHLTAVIVDKDTGENLETPSSFTIKVHDVNDNWPVFTHRLFNASVPESSAVGTSVISVTAVDADDPTVGDHASVMYQILKGKEYFAIDNSGRIITITKSLDREKQARYEIVVEARDAQGLRGDSGTATVLVTLQDINDNFPFFTQTKYTFVVPEDTRVGTSVGSLFVEDPDEPQNRMTKYSILRGDYQDAFTIETNPAHNEGIIKPMKPLDYEYIQQYSFIVEATDPTIDLRYMSPPAGNRAQVIINITDVDEPPIFQQPFYHFQLKENQKKPLIGTVLAMDPDAARHSIGYSIRRTSDKGQFFRVTKKGDIYNEKELDREVYPWYNLTVEAKELDSTGTPTGKESIVQVHIEVLDENDNAPEFAKPYQPKVCENAVHGQLVLQISAIDKDITPRNVKFKFILNTENNFTLTDNHDNTANITVKYGQFDREHTKVHFLPVVISDNGMPSRTGTSTLTVAVCKCNEQGEFTFCEDMAAQVGVSIQAVVAILLCILTITVITLLIFLRRRLRKQARAHGKSVPEIHEQLVTYDEEGGGEMDTTSYDVSVLNSVRRGGAKPPRPALDARPSLYAQVQKPPRHAPGAHGGPGEMAAMIEVKKDEADHDGDGPPYDTLHIYGYEGSESIAESLSSLGTDSSDSDVDYDFLNDWGPRFKMLAELYGSDPREELLY
With B3, in assay [5], the binding entry was “binds”.

B4: plakoglobin (human) (protein, UniProt P14923 1-745)
chain: MEVMNLMEQPIKVTEWQQTYTYDSGIHSGANTCVPSVSSKGIMEEDEACGRQYTLKKTTTYTQGVPPSQGDLEYQMSTTARAKRVREAMCPGVSGEDSSLLLATQVEGQATNLQRLAEPSQLLKSAIVHLINYQDDAELATRALPELTKLLNDEDPVVVTKAAMIVNQLSKKEASRRALMGSPQLVAAVVRTMQNTSDLDTARCTTSILHNLSHHREGLLAIFKSGGIPALVRMLSSPVESVLFYAITTLHNLLLYQEGAKMAVRLADGLQKMVPLLNKNNPKFLAITTDCLQLLAYGNQESKLIILANGGPQALVQIMRNYSYEKLLWTTSRVLKVLSVCPSNKPAIVEAGGMQALGKHLTSNSPRLVQNCLWTLRNLSDVATKQEGLESVLKILVNQLSVDDVNVLTCATGTLSNLTCNNSKNKTLVTQNSGVEALIHAILRAGDKDDITEPAVCALRHLTSRHPEAEMAQNSVRLNYGIPAIVKLLNQPNQWPLVKATIGLIRNLALCPANHAPLQEAAVIPRLVQLLVKAHQDAQRHVAAGTQQPYTDGVRMEEIVEGCTGALHILARDPMNRMEIFRLNTIPLFVQLLYSSVENIQRVAAGVLCELAQDKEAADAIDAEGASAPLMELLHSRNEGTATYAAAVLFRISEDKNPDYRKRVSVELTNSLFKHDPAAWEAAQSMIPINEPYGDDMDATYRPMYSSDVPLDPLEMHMDMDGDYPIDTYSDGLRPPYPTADHMLA
On to B4, for which the binding result in assay [5] is listed as “binds”.

B5: kallikrein-related peptidase 8 (KLK8) in rat myocardium (enzyme, UniProt O88780 33-260)
chain: ILEGQECKPHSQPWQTALFQGERLVCGGVLVGDRWVLTAAHCKKDKYSVRLGDHSLQKRDEPEQEIQVARSIQHPCFNSSNPEDHSHDIMLIRLQNSANLGDKVKPIELANLCPKVGQKCIISGWGTVTSPQENFPNTLNCAEVKIYSQNKCERAYPGKITEGMVCAGSSNGADTCQGDSGGPLVCNGVLQGITTWGSDPCGKPEKPGVYTKICRYTNWIKKTMGKRD
As for B5, in assay [6], the binding result is on record as “binds”.
